These are yes or no findings as the source states them, for the method shown. Some entries that bind do so weakly or less than the wild type. Tags and fused reporters may be left off the sequences shown.
Tests used:
GDF-11 [1] = biological target: T1, GDF-11 (UniProt O95390); assay: SPR (BiaCore CM5 chip), GDF-11 immobilized by amine coupling, Caronte injected at 200 ug/ml
T1 sequence (looked up): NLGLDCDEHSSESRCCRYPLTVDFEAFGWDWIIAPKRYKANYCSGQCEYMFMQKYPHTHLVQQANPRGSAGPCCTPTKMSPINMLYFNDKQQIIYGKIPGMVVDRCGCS

GDF-11 [2] = biological target: T1, GDF-11; assay: SPR (BiaCore CM5 chip), GDF-11 immobilized by amine coupling, Caronte-Fc injected at 200 ug/ml

binding (GDF-11 [1]): binds
binding (GDF-11 [2]): binds
B1: Caronte-Fc (Cerberus homolog from Gallus gallus) (Fc fusion, not shown: a dimerising Fc or GST; small tags and cut ends)
chain: QPDSQQRKRRPLQHLFYLDRNLLESQSFHELVGENPVGVKETQEEPSFFIAFPQTAGESQKQGEKKMSRFILPNAELYAHQDLRTWAAPKEISPVENFSPSYYSNKRDVEPPYRKDAKKFWDHFMLRKNSASEEVVLPIKTNEMHQETCRTLPFSQSVAHESCEKVIVQNNLCFGKCSSFHVPGPDDRLYTFCSKCLPTKFSMKHLDLNCTSSVPVVKKVMIVEECNCETQKIEDPLLGSRQSDFLGNLPEHN
